The values that follow come from PMC3591345, “A Novel Single-Strand Specific 3′–5′ Exonuclease Found in the Hyperthermophilic Archaeon, Pyrococcus furiosus”.

A weaker result is weaker than the reference pair of the same experiment. Protein sequences can lack the tags named with them.

The data set has as its target T1, PfuExo I (Pyrococcus furiosus) (UniProt Q8TZE9).
T1 sequence (looked up): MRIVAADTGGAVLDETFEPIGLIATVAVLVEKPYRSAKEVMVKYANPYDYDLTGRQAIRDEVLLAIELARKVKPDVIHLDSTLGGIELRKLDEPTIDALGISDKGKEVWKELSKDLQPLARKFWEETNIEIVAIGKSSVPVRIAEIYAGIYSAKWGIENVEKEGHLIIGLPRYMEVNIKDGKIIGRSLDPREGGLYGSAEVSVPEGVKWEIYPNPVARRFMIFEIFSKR
Put plainly: EMSA. The conditions noted are these: no Mg2+, 0.1 mM EDTA, 1-1000 nM protein, 0.1% glutaraldehyde fixation, slight shifts, 20 mM triethanolamine (pH not stated), 50 mM NaCl, 0.1 mg/ml BSA, 2.5 nM DNA, 20 min at 37 C, then 0.1% glutaraldehyde, 4.5% native PAGE, recombinant protein, residues 1-229, label: 32P (5'). (In general: Mobility shift assays separate free from complexed probe on a gel.)

As for “AGCTACCATGCCTGCACGAATTAAGCAATTCGTAATCATGGTCATAGCT (double strand) [dsDNA d49F/d49R]”, the binding result is given as “binds more weakly”.
